# Screen size: about 52,000 sequences; about 210 (0.4%) were called active.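 How the source made its calls: active means gene whose silencing raises cell survival under the drug, median off-target-corrected z-score across its silencing RNAs 2 or more; inactive means the rest.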 The list shows a part of the results.
# Assay: Resistance to Poly (ADP-Ribose) Polymerase inhibitor: Gene Identification via Genome-wide siRNA Screen
# Settings: mouse BRCA2 R2336H ES cells, olaparib, CellTiter-Glo viability; active compounds read high
# In short: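 Genome-wide siRNA screen (3 siRNAs/gene, 20 nM) in mouse ES cells carrying hypomorphic BRCA2 R2336H; olaparib 500 nM added 48 h post-transfection, CellTiter-Glo viability 72 h later. Normalized to plate-median negative control; MAD z-scores, gene median, seed-adjusted.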
row,Sequence,z-score
1,GGAAGAAGAAGUGUCACUATT against Wasf2,inactive: -1.62
2,CCAGAACCGUUACUUAGACTT against Bet1l,inactive: -1.06
3,GCCUCUCAACAUGAAUUAATT against LOC432988,inactive: 1.59
4,GGAACCACAUGGACACACUTT against D230037D09Rik,inactive: -0.47
5,CGAGAUGUUUAUUCAACAUTT against Tcf23,inactive: 1.04
6,GGCUCCACACGAUUGUUAGTT against Gne,inactive: -1.12
7,GGUUGUUGGUCUUCUGUGATT against Nme3,inactive: -0.788
8,GGAUCUACAUGCUUCUCAGTT against 1700018B24Rik,inactive: 0.448
9,GGUGCAGAAUGCAAUGGAUTT against Ing3,inactive: -2.61
10,CCUCCACAUUUAUUUGCUATT against Mbtd1,inactive: 0.311
11,GGAGGUAACGCAUGUUACATT against 4930483J18Rik,inactive: 0.189
12,GGACCUCUGUGAGGAAGUGTT against Prkcz,inactive: -0.658
13,CCCUGAAGAAGUUUGAUACTT against AW146020,inactive: 0.469
14,GGAUCAUUGAUGUUGUCUATT against Rps8,inactive: -2.73
15,GGUUCAUCUGUACAAAAUCTT against Zfp110,inactive: 0.767
16,GGCCUUACAGAGGAAUAUCTT against 4933439F18Rik,inactive: 0.184
17,GGUAGUUAGGUACCAUUUGTT against B930008A12Rik,inactive: -0.226
18,GGGAAGAUUGUGCAAAUGUTT against Zfp386,inactive: -1.13
19,GGCCCACUUAUGAUGUACATT against Eef2,inactive: -0.272
20,GGCCUUGUUUUCAUGCCUGTT against BC031140,inactive: -0.814
21,CCCAUUUGAAAUUAGGGUATT against AI452372,inactive: -0.851
22,GAGUCCUUGGGACAUUCUCTT against Olfr168,inactive: -0.663
23,GGUUUCUACAAACAAGCGUTT against 5430411K16Rik,inactive: -0.822
24,GCACCGGGCUGAACUUUACTT against Lhcgr,inactive: 0.4
25,GGUUUGUGGUGAACUUUCATT against Lgals9,inactive: -1.5
26,CGAUCAUGAAUCCUCAAACTT against Olfr828,inactive: -0.276

row,Sequence,z-score
1,GGACUUUGAAUCAUGUGAATT against Lss,inactive: -0.294
2,GGACUUACUUCCCAUUUCGTT against 1110015E22Rik,inactive: -1.36
3,CCCUGACACAGUAGCAUUUTT against Eef1a1,inactive: -3
4,CCAUACACAACAUUCCAGATT against Slc39a11,inactive: -0.214
5,CGAUCGAAUCCUUAAGUACTT against Ttll1,inactive: -0.422
6,GGAUGGUGAGAAGCUGAUCTT against Omp,inactive: -0.552
7,GGAAAUGAAUUUUGGAAUCTT against Pps,inactive: -0.876
8,GGACUUCCAGUACCUAAGGTT against Smpd2,inactive: -0.694
9,CGAAUCUCUGGCAAAAUGGTT against Cdc2a,inactive: 0.982
10,CCAGGCAGCUAAACUGUGUTT against Tex11,inactive: 0.763
11,GCCAGCAACCCUCUUCGUUTT against Foxo6,inactive: 0.732
12,CCGGGAAAUUCUGUUAGCCTT against Pla2g1b,inactive: -2.47
13,GGGACUUCAUUGCUACUAATT against BC028440,inactive: 0.103
14,GGAUUUAUCCCAAAAUCUATT against Tmem26,inactive: 0.759
15,GGAAGAGAGAAUAAGUAUCTT against Robo2,inactive: 0.196
16,GGUUUUUACUUUGACCCUGTT against Wdr21,inactive: -2.18
17,GGAACCAAGCCAUGAUUUUTT against Mrgprb2,inactive: 0.474
18,CCAUACAAGAGUGACAGUUTT against Olfr810,inactive: -1.75
19,GCGUGGUUCAGUCAGGUAUTT against 2310022M17Rik,inactive: 0.682
20,GGAAGGAAAAAGGCUUUUGTT against Olfr135,inactive: -1.2
21,CAGGCAUCGAAACAUUCAUTT against Olfr672,inactive: 1.56
22,GGCUCAGAUUUUGUGAUUCTT against Olfr894,inactive: 0.308
23,CGUGGAUGUGUCAUCUAUUTT against Mapk10,inactive: -0.741
24,GGAAGCUUAUAAAAAUGUGTT against Htatip2,inactive: 0.352
25,GGGAACAAAGCUGACCUUGTT against Rab5b,inactive: -2.54
26,GGAGCGAGUAGACAUUCUGTT against Rdh13,inactive: -0.119

row,Sequence,z-score
1,GCUACGAGAUUCUUGUUGCTT against Taar3,inactive: 0.374
2,GGAACCUAUUGAAUCUGGGTT against D830019K17Rik,inactive: 0.578
3,GGCAUUGAGAAGUUUGAAGTT against 4831428F09,inactive: 0.401
4,GAAAAACUGCUGUUUUGGATT against Ly6g6d,inactive: 0.131
5,CCGGCAACAUGCGUGAAUUTT against Trpv4,inactive: -0.769
6,CGCGAUUCAGCUCAUUCUCTT against 3200001I04Rik,inactive: -0.0352
7,GGUUUGCAUAUCUCACCCUTT against Sirt6,inactive: 0.693
8,GGGUUUGAGUGCUGUGAAGTT against Ap4s1,inactive: -3.13
9,GCCGUCUUCCGAAGAAUACTT against Mettl1,inactive: -1.28
10,GGUAAUGCUUGAAGAUAAUTT against Ivns1abp,inactive: -0.157
11,GGCCAGGAGAAGAAGAUACTT against E130014J05Rik,active: 4.51
12,GGUUCUCUUGUAAAGAUGUTT against Slco1a1,inactive: -0.229
13,GGAGUGUUUCCAGAGAGCATT against 4632415K11Rik,inactive: 0.143
14,GCACAUUUUGCGAGUACUCTT against Rps18,inactive: -3.53
15,GGAAUUGAAGUCAGAGUUATT against Myoc,inactive: 2.03
16,GGAAACAUGACAGUGGUGCTT against 2310003F16Rik,inactive: 0.756
17,CCUGAGAGUAACUCUGAGGTT against 5033413H12Rik,inactive: 1.34
18,CGACAUGUAGCUCUGCAUCTT against Tmem25,inactive: 0.651
19,GGUCACUAGUUUAUUUUGATT against 2610208M17Rik,inactive: -0.467
20,GCACUUUUGUUCACUUAAATT against Fmo1,inactive: -1.09
21,GGAGCUGAACAAGAAAUUGTT against Polr3h,inactive: 1.14
22,GGAAUCAGUUUCCCUGUAUTT against Jam4,inactive: -0.0407
23,GGAGAGUGCUGUGAAGCCATT against Vegfb,inactive: -0.0773
24,GGAGAAGAAAAACCACUACTT against Cacng8,inactive: 0.94
25,GGAUUCUGAGAAAUCAAGATT against Serpinb12,inactive: 0.95
26,GGCUGAUCCUGUAUUCUUATT against Sertad3,inactive: 0.48

row,Sequence,z-score
1,GGAAUUAAAGAAAUAUGGCTT against Osp94,inactive: 0.462
2,GGGUGUAACUGUGAGAUAATT against 2410195B05Rik,inactive: -0.00189
3,GCAAUACGCAAACAUUCACTT against 2810021B07Rik,inactive: -0.328
4,GGGAUCGUAGAAGAUUAUATT against 2610029G23Rik,inactive: 0.109
5,CGAGAAACCACAAUUCUCUTT against Arl11,inactive: -0.44
6,GGAAUUCUGACGUGAAGAATT against Olfr13,inactive: -2.85
7,CGCUCAGGUCACCAAAAAGTT against Acaca,inactive: -1.31
8,GGAAGAAAUGUACAAACUGTT against Spg21,inactive: 0.858
9,GGAGAUUGAGGAAUCAUCATT against 1700108E19Rik,inactive: 0.0305
10,GCAAGUGAUGAAUGCUUACTT against 3100002P13Rik,inactive: 0.534
11,GGUGACUCUGAUCAAUUUCTT against Fkbpl,inactive: 0.347
12,CUCAACAUUCUCUAAACAUTT against BC038328,inactive: 0.975
13,GGUAGUGAUCCUCAAAAAATT against Myc,inactive: 0.349
14,GGGCAGAAAACAACUGGAATT against Pappa,inactive: -0.971
15,GCAAUCUUAGGUUCAUGGUTT against C330014B19Rik,inactive: 0.81
16,GCUCCCAAGUUUACCCAGCTT against 1110037P11Rik,inactive: 0.199
17,GGCACCUGGAGUUUUAGAGTT against Ltb4r1,inactive: -0.35
18,GGCCUAUCAAAAUUCAGUUTT against Rbm7,inactive: 0.196
19,GCCAGUGUUCGGAGAAGAUTT against Pitx1,inactive: 0.201
20,GGCCUAGUGCCUUUAUUUGTT against Ptgfr,inactive: 1.03
21,GGGUGGACUAGGAGUGGAUTT against D330022A01Rik,inactive: -1.04
22,CCUAGGACAUUUAUUAACATT against Casc3,inactive: -0.369
23,GGUGGAAGCAAGCUGUUCUTT against Trim39,inactive: 0.0684
24,GGACUUACAAAAAUUCCAGTT against Fcer2a,inactive: 1.1
25,GGACUCAAGAUUUCAGAAUTT against Btbd7,inactive: -0.275

# Part of the list above, reformatted:
row | Sequence | z-score
8 | GGAAGAAAUGUACAAACUGTT against Spg21 | inactive: 0.858
9 | GGAGAUUGAGGAAUCAUCATT against 1700108E19Rik | inactive: 0.0305
11 | GGUGACUCUGAUCAAUUUCTT against Fkbpl | inactive: 0.347
17 | GGCACCUGGAGUUUUAGAGTT against Ltb4r1 | inactive: -0.35
18 | GGCCUAUCAAAAUUCAGUUTT against Rbm7 | inactive: 0.196
19 | GCCAGUGUUCGGAGAAGAUTT against Pitx1 | inactive: 0.201

# Reference: PubChem BioAssay AID1347423 (Functional Genomics Laboratory (NCATS/FGL), 2020)
